Values from PubChem BioAssay AID504764 (Drosophila RNAi Screening Center, 2011).

Screen: 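Genome-wide screen for regulators of Notch-driven gene expression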 (primary screen)
Cell system: Drosophila Kc167 cells
Reagents: long dsRNA against Drosophila genes
Timing: about 5 days (4 days dsRNA, then 24 h after transfection)
Conditions: transfection of constitutively active membrane-tethered Notch lacking the extracellular domain, read 24 h later
Read-out: 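Light from a Notch-responsive E(spl)m3 luciferase reporter under active Notch, with control-promoter and no-Notch reporter wells to normalise; raw counts from paired wells a and b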
Reading the numbers: induced reporter light, run 1, well a and induced reporter light, run 1, well b: higher = more light from the Notch target reporter with active Notch; control promoter light, run 1, well a and control promoter light, run 1, well b: higher = more light from the viral control promoter (cell number, transfection, viability); uninduced reporter light, run 1, well a: higher = more light from the Notch target reporter without active Notch
Active means: 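Wells with low control signal or poorly matching duplicates excluded; duplicates averaged; per source plate, z beyond ±2 for induced/control log2 ratio or beyond ±1.8 for induced/uninduced marks a hit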
Meaning of the calls: active = modifier hit (raised or lowered Notch signal); inactive = not a hit
The deposit covers about 22,000 reagents; below is an unselected part of those that have a named target and a result. Over the whole deposit, 403 (1.9%) got an active call. 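Unnormalised raw counts per well; ratio z-scores behind the hit calls and whether each hit raises or lowers signal are not deposited.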 Unmarked entries are inactive. Not given: the amount of reagent.

no.	predicted target	DRSC id	induced reporter light, run 1, well a	induced reporter light, run 1, well b	control promoter light, run 1, well a	control promoter light, run 1, well b	uninduced reporter light, run 1, well a
1	Andorra	DRSC19475	23615	29130	22890	20305	3015
2	Rca1	DRSC03407	43675	53830	51220	49920	3770
3	CG3071	DRSC18526	1.48e5	1.80e5	1.99e5	2.23e5	11115
4	Cyp313a3	DRSC16626	84200	79070	84725	58345	5730
5	Secp43	DRSC00454	1.39e5	1.23e5	1.56e5	1.37e5	7850
6	aurB	DRSC03548	96245 (active)	97060	1.54e5	1.52e5	10690
7	CG42264	DRSC18074	1.64e5	1.40e5	2.74e5	2.55e5	11215
8	CG42264	DRSC18075	1.26e5	1.21e5	3.26e5	2.81e5	10992
9	Claspin	DRSC08308	1.97e5	2.04e5	3.12e5	3.31e5	13470
10	Rab14	DRSC03403	1.66e5	1.90e5	1.49e5	1.71e5	16435
11	CG10947	DRSC02111	1.99e5	2.10e5	2.44e5	2.33e5	16410
12	CG9192	DRSC08639	1.06e5	1.39e5	2.06e5	1.43e5	5000
13	ECSIT	DRSC12348	40590	58215	52315	36570	5330
14	CG14062	DRSC14725	1.18e5	1.14e5	1.48e5	1.34e5	10550
15	CG4806	DRSC04491	1.24e5	1.12e5	1.25e5	1.22e5	6838
16	Osi15	DRSC12178	1.63e5	1.29e5	1.19e5	1.07e5	8075
17	CG10910	DRSC06007	31870	31515	37755	21875	3335
18	CG7990	DRSC19296	1.01e5	96600	1.19e5	1.02e5	7282
19	CG7990	DRSC20069	10440	11065	12760	10210	4292
20	SdhC	DRSC16088	78765	1.14e5	96615	1.02e5	6390
21	TBC1D5	DRSC16421	1.41e5	1.32e5	93910	93585	10990
22	CG14187	DRSC10186	1.65e5	1.19e5	1.23e5	1.29e5	11805
23	RabGGTa	DRSC12189	1.62e5	1.53e5	1.11e5	1.03e5	12010
24	slbo	DRSC04716	2.01e5	1.48e5	1.62e5	1.70e5	11655
25	tth	DRSC19435	76620	65395	36605	37795	11585
26	Gmppa	DRSC07108	1.05e5	99575	1.41e5	1.28e5	8310
27	ND5 (retired record)	DRSC21281	1.24e5	1.60e5	1.48e5	1.79e5	11335
28	p115	DRSC18813	1.55e5	1.72e5	3.02e5	3.03e5	9575
29	Sse	DRSC09746	78700	92855	99860	36055	12610
30	mRpL18	DRSC06142	98795	79630	1.69e5	1.07e5	9230
31	CtBP	DRSC16617	75575	60530	64730	60740	5625
32	bin	DRSC10332	2.09e5	1.55e5	2.48e5	3.13e5	8115
33	dpa	DRSC07604	1.09e5	1.03e5	1.13e5	1.25e5	9470
34	CG14280	DRSC14761	1.64e5	1.54e5	1.65e5	1.80e5	10275
35	CG33158	DRSC09708	1.64e5	2.04e5	2.98e5	3.02e5	12870
36	CG33158	DRSC09709	1.63e5	1.80e5	2.16e5	1.64e5	7635
37	CG33158	DRSC10438	1.88e5	1.45e5	2.70e5	1.76e5	9180
38	CG34227	DRSC06788	1.11e5	1.14e5	1.36e5	1.44e5	10960
39	CG34227	DRSC07034	71025	81480	90050	92390	8785
40	yellow-b	DRSC03639	1.24e5	1.28e5	1.06e5	1.24e5	11015
41	CG31495	DRSC16762	1.61e5	1.90e5	1.76e5	1.96e5	15640
42	MICU1	DRSC02752	1.59e5	1.69e5	1.65e5	1.95e5	16485
43	CG5646	DRSC15853	1.68e5	1.61e5	2.28e5	2.53e5	11675
44	CG15549	DRSC15087	1.20e5	1.17e5	1.56e5	1.42e5	11150
45	gcm2	DRSC03538	1.16e5	1.55e5	72425	68625	16905
46	CG14634	DRSC17944	1.11e5	1.12e5	1.73e5	1.81e5	8635
47	ND-B14.5A	DRSC18500	1.05e5	90750	1.55e5	1.49e5	8180
48	DIP-delta	DRSC10214	2.78e5	2.28e5	4.14e5	2.60e5	12780
49	DIP-delta	DRSC10450	3.07e5	2.10e5	3.20e5	3.08e5	11420
50	CG10749	DRSC09798	1.41e5	1.21e5	2.03e5	1.38e5	7050
51	Rh50	DRSC08692	1.49e5	1.25e5	93230	59745	12195
52	CG18480	DRSC01957	3.49e5	2.67e5	2.98e5	2.92e5	21320
53	CG2111	DRSC18205	82325	76130	1.01e5	78975	5565
54	CG15130	DRSC02430	57435	54775	64245	72145	5185
55	GstE10	DRSC06671	73725	70750	96655	91485	6465
56	CheA84a	DRSC12669	1.72e5	1.24e5	1.48e5	1.55e5	12145
57	Cyp18a1	DRSC20235	87805	1.09e5	1.04e5	1.30e5	11215
58	syd	DRSC10963	1.22e5	1.05e5	67540	31035	9720
59	CG32182	DRSC09508	1.69e5	1.84e5	2.87e5	2.59e5	19825
60	Sirt6	DRSC16010	21865	28005	35715	35585	1760
61	lov	DRSC04279	2.37e5 (active)	2.36e5	1.49e5	2.24e5	15300
62	lov	DRSC04665	2.09e5	1.82e5	1.83e5	1.57e5	13790
63	CG16711	DRSC10220	1.63e5	1.53e5	2.18e5	2.54e5	10550
64	Sgs1	DRSC00787	1.05e5	87905	96130	83950	6165
65	Sgs1	DRSC00848	1.02e5	1.06e5	1.51e5	1.55e5	8145

Reagents listed above with an active call (2):
predicted target	DRSC id	induced reporter light, run 1, well a	induced reporter light, run 1, well b	control promoter light, run 1, well a	control promoter light, run 1, well b	uninduced reporter light, run 1, well a
aurB	DRSC03548	96245 (active)	97060	1.54e5	1.52e5	10690
lov	DRSC04279	2.37e5 (active)	2.36e5	1.49e5	2.24e5	15300
